# Test results taken from the supplement of paper PMC8728848.
# The other results are listed elsewhere or left out.
# B1: HA-61200 (Pseudomonas aeruginosa), Q02SP8_PSEAB (protein)
# chain: MNKCYALVWNVSQGCWNVVSEGSRRRGKPAGAKAAIASVLALLGATALAPAYALPSGGTVVGGSANGEIHLSGGNSLSVNQKVDKLIANWDSFSVAAGERVIFNQPSSSSIALNRVIGTKASDIQGRIDANGQVFLVNPNGVLFGRGAQVNVGGLVASTLDITDAEFNGNSSRYRFTGPSTNGVLNHGGAITAAEGGSIALLGAQVDNRGTVLAQMGGVGLGAGSDLTLNFDGNKLLDIRVDAGVANALASNGGLLKADGGRVLMAARTANALLNTVVNSQGAIEARSLRGKNGRIVLDG
# Experiments:
# Assay in all cases: glycan array binding signal (z-score within array); higher = stronger binding
# Conditions in all cases: glycan notation: IUPAC condensed, linker removed
# [1] = biological target: Fuc(a1-2)Gal
# How it was run: (§1)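 From the Consortium for Functional Glycomics database, 3228 arrays were curated, keeping only those whose protein sequence was available. Binding is given as a within-array Z-score averaged across arrays sharing a protein sequence and across linkers. Negative Z-scores can be read as non-binding.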
# [2] = biological target: Fuc(a1-2)Gal(b1-3)GalNAc
# How it was run: as §1
# [3] = biological target: Fuc(a1-2)Gal(b1-3)GalNAc(a1-3)[Fuc(a1-2)]Gal(b1-4)Glc
# How it was run: as §1
# [4] = biological target: Fuc(a1-2)Gal(b1-3)GalNAc(a1-3)[Fuc(a1-2)]Gal(b1-4)GlcNAc
# How it was run: as §1
# [5] = biological target: Fuc(a1-2)Gal(b1-3)GalNAc(b1-3)Gal
# How it was run: as §1
# [6] = biological target: Fuc(a1-2)Gal(b1-3)GalNAc(b1-3)Gal(a1-4)Gal(b1-4)Glc
# How it was run: as §1
# [7] = biological target: Fuc(a1-2)Gal(b1-3)GalNAc(b1-4)[Neu5Ac(a2-3)]Gal(b1-4)Glc
# How it was run: as §1
# [8] = biological target: Fuc(a1-2)Gal(b1-3)GlcNAc
# How it was run: as §1
# [9] = biological target: Fuc(a1-2)Gal(b1-3)GlcNAc(b1-2)Man(a1-3)[Fuc(a1-2)Gal(b1-3)GlcNAc(b1-2)Man(a1-6)]Man(b1-4)GlcNAc(b1-4)GlcNAc
# How it was run: as §1
# [10] = biological target: Fuc(a1-2)Gal(b1-3)GlcNAc(b1-2)Man(a1-3)[Fuc(a1-2)Gal(b1-3)GlcNAc(b1-2)Man(a1-6)]Man(b1-4)GlcNAc(b1-4)[Fuc(a1-6)]GlcNAc
# How it was run: as §1
# [11] = biological target: Fuc(a1-2)Gal(b1-3)GlcNAc(b1-3)Gal(b1-4)Glc
# How it was run: as §1
# [12] = biological target: Fuc(a1-2)Gal(b1-3)GlcNAc(b1-3)GalNAc
# How it was run: as §1
# [13] = biological target: Fuc(a1-2)Gal(b1-3)GlcNAc(b1-3)[Fuc(a1-2)Gal(b1-3)GlcNAc(b1-6)]GalNAc
# How it was run: as §1
# [14] = biological target: Fuc(a1-2)Gal(b1-3)GlcNAc(b1-3)[Gal(b1-4)GlcNAc(b1-6)]Gal(b1-4)Glc
# How it was run: as §1
# [15] = biological target: Fuc(a1-2)Gal(b1-3)GlcNAc(b1-3)[Neu5Ac(a2-6)Gal(b1-4)GlcNAc(b1-6)]Gal(b1-4)Glc
# How it was run: as §1
# [16] = biological target: Fuc(a1-2)Gal(b1-3)GlcNAc6S
# How it was run: as §1
# [17] = biological target: Fuc(a1-2)Gal(b1-3)[Fuc(a1-4)]GlcNAc
# How it was run: as §1
# [18] = biological target: Fuc(a1-2)Gal(b1-3)[Fuc(a1-4)]GlcNAc(b1-2)Man(a1-3)[Fuc(a1-2)Gal(b1-3)[Fuc(a1-4)]GlcNAc(b1-2)Man(a1-3)]Man(b1-4)GlcNAc(b1-4)GlcNAc
# How it was run: as §1
# [19] = biological target: Fuc(a1-2)Gal(b1-3)[Fuc(a1-4)]GlcNAc(b1-2)Man(a1-3)[Fuc(a1-2)Gal(b1-3)[Fuc(a1-4)]GlcNAc(b1-2)Man(a1-6)]Man(b1-4)GlcNAc(b1-4)[Fuc(a1-6)]GlcNAc(b1-4)[Fuc(a1-6)]GlcNAc
# How it was run: as §1
# [20] = biological target: Fuc(a1-2)Gal(b1-3)[Fuc(a1-4)]GlcNAc(b1-3)[Fuc(a1-3)[Gal(b1-4)]GlcNAc(b1-6)]Gal(b1-4)Glc
# How it was run: as §1
# [21] = biological target: Fuc(a1-2)Gal(b1-3)[Fuc(a1-4)]GlcNAc(b1-3)[Gal(b1-4)GlcNAc(b1-6)]Gal(b1-4)Glc
# How it was run: as §1
# [22] = biological target: Fuc(a1-2)Gal(b1-4)Fuc(a1-3)]GlcNAc(b1-2)Man(a1-3)[Fuc(a1-2)Gal(b1-4)[Fuc(a1-3)]GlcNAc(b1-2)Man(a1-6)]Man(b1-4)GlcNAc(b1-4)GlcNAc
# How it was run: as §1
# [23] = biological target: Fuc(a1-2)Gal(b1-4)Glc
# How it was run: as §1
# [24] = biological target: Fuc(a1-2)Gal(b1-4)Glc6S
# How it was run: as §1
# [25] = biological target: Fuc(a1-2)Gal(b1-4)GlcNAc
# How it was run: as §1
# [26] = biological target: Fuc(a1-2)Gal(b1-4)GlcNAc(b1-2)Man
# How it was run: as §1
# [27] = biological target: Fuc(a1-2)Gal(b1-4)GlcNAc(b1-2)Man(a1-3)[Fuc(a1-2)Gal(b1-4)GlcNAc(b1-2)Man(a1-6)]Man(b1-4)GlcNAc(b1-4)GlcNAc
# How it was run: as §1
# [28] = biological target: Fuc(a1-2)Gal(b1-4)GlcNAc(b1-2)Man(a1-3)[Fuc(a1-2)Gal(b1-4)GlcNAc(b1-2)Man(a1-6)]Man(b1-4)GlcNAc(b1-4)[Fuc(a1-6)]GlcNAc
# How it was run: as §1
# [29] = biological target: Fuc(a1-2)Gal(b1-4)GlcNAc(b1-2)[Fuc(a1-2)Gal(b1-4)GlcNAc(b1-4)]Man(a1-3)[Fuc(a1-2)Gal(b1-4)GlcNAc(b1-2)Man(a1-6)]Man(b1-4)GlcNAc(b1-4)GlcNAc
# How it was run: as §1
# [30] = biological target: Fuc(a1-2)Gal(b1-4)GlcNAc(b1-3)Gal(b1-4)GlcNAc
# How it was run: as §1
binder,measurement,setting,value
B1,glycan array binding signal (z-score),[1],0.052
same,glycan array binding signal (z-score),[2],-0.293
same,glycan array binding signal (z-score),[3],-0.947
same,glycan array binding signal (z-score),[4],-0.993
same,glycan array binding signal (z-score),[5],-0.747
same,glycan array binding signal (z-score),[6],-0.486
same,glycan array binding signal (z-score),[7],-0.288
same,glycan array binding signal (z-score),[8],-1.2
same,glycan array binding signal (z-score),[9],4.52
same,glycan array binding signal (z-score),[10],-0.53
same,glycan array binding signal (z-score),[11],-0.622
same,glycan array binding signal (z-score),[12],-0.475
same,glycan array binding signal (z-score),[13],0.665
same,glycan array binding signal (z-score),[14],0.014
same,glycan array binding signal (z-score),[15],-0.553
same,glycan array binding signal (z-score),[16],-0.547
same,glycan array binding signal (z-score),[17],-0.114
same,glycan array binding signal (z-score),[18],1.5
same,glycan array binding signal (z-score),[19],-0.076
same,glycan array binding signal (z-score),[20],-0.35
same,glycan array binding signal (z-score),[21],0.396
same,glycan array binding signal (z-score),[22],2.27
same,glycan array binding signal (z-score),[23],1.09
same,glycan array binding signal (z-score),[24],0.498
same,glycan array binding signal (z-score),[25],-0.275
same,glycan array binding signal (z-score),[26],0.447
same,glycan array binding signal (z-score),[27],-0.51
same,glycan array binding signal (z-score),[28],0.288
same,glycan array binding signal (z-score),[29],0.575
same,glycan array binding signal (z-score),[30],0.177

# Reformatted bar-delimited: entries from further up.
binder | measurement | setting | value
B1 | glycan array binding signal (z-score) | [29] | 0.575
same | glycan array binding signal (z-score) | [30] | 0.177
